Measurements taken from publication PMC6719045, “Analysis of IFITM-IFITM Interactions by a Flow Cytometry-Based FRET Assay” (International Journal of Molecular Sciences, 2019).
No constants are given. Whether binding was seen depends on the method and setting. In cells and extracts the contact can be indirect. Some binding calls cover weakened binding; strength is not graded here. For some assays here: Sequences can lack the tags named with a protein.

Chains of the proteins cited; added tags and fusions are not shown. Lines headed by an entry give the natural chain unless they say otherwise; changes in a name come on top. A line that says so, or that is headed by a name, gives the form on record, which may keep a tag or linker.
UniProt Q01628: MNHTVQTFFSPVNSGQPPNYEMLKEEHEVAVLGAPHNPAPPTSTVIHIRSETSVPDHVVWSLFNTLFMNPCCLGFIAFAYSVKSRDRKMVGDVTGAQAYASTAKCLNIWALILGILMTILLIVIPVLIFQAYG
IFITM3-43AS (amino acids 43–48 changed to alanines) with 3xFLAG or myc tag (Q01628, form named): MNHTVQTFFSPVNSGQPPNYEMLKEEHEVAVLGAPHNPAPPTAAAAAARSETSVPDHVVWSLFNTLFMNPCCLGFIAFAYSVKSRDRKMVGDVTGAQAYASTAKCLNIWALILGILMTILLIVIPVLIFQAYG
UniProt Q01629: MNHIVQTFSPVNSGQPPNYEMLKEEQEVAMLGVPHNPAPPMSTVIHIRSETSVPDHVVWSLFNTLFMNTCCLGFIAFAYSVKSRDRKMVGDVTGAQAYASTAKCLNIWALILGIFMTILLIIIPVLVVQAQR

Experiments:
[1] = molecular target: T1, IFITM3-wt fused to SCFP or SYFP (interferon-induced transmembrane protein 3) (UniProt Q01628 1-133); experiment: FRET or BRET; flow cytometry-based FRET (FACS-FRET) in transiently transfected HEK 293T cells, usually 1 µg of each plasmid encoding the FRET partners; read-out percent of FRET-positive cells; where the paper tells the orientation the binder is the SCFP fusion (donor) and the target the SYFP fusion (acceptor)
T1 construct: interferon-induced transmembrane protein 3 (IFITM3), wild type; One molecule stands for both FRET copies (SCFP3A fusion and SYFP2 fusion); also called SxFP-IFITM3; IFTIM3; source: 293T, transiently transfected, in cells; not shown: SCFP3A or SYFP2, N-terminal, kept

[2] = molecular target: IFITM2 fused to SCFP or SYFP (interferon-induced transmembrane protein 2) (UniProt Q01629); experiment: as above
[3] = molecular target: T2, IFITM5 fused to SCFP or SYFP (interferon-induced transmembrane protein 5) (human) (UniProt A6NNB3); experiment: as above
T2 sequence: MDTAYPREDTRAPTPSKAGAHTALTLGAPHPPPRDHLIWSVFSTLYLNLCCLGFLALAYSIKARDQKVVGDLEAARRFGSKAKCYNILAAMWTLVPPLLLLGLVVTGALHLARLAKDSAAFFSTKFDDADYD

[4] = molecular target: IFITM3-43AS (amino acids 43–48 changed to alanines) fused to SCFP or SYFP (UniProt Q01628); experiment: as above
[5] = molecular target: IFITM3-wt with 3xFLAG or myc tag (UniProt Q01628); experiment: co-IP; 293T cells cotransfected with 2 µg each of plasmids for myc- and 3xFLAG-tagged IFITM3 proteins; lysis in 50 mM Tris pH 7.4, 150 mM NaCl, 0.5% CHAPSO; precipitation with anti-FLAG (M2), blot with anti-myc (9E10)
[6] = molecular target: T1, IFITM3-wt fused to SCFP or SYFP …; experiment: FRET or BRET; FACS-FRET in 293T cells with reduced amounts of transfected plasmids; data not shown
[7] = molecular target: IFITM3-FF (F75A, F78A) fused to SCFP or SYFP (UniProt Q01628); experiment: FRET or BRET; flow cytometry-based FRET (FACS-FRET) in transiently transfected HEK 293T cells, usually 1 µg of each plasmid encoding the FRET partners; read-out percent of FRET-positive cells; where the paper tells the orientation the binder is the SCFP fusion (donor) and the target the SYFP fusion (acceptor)
[8] = molecular target: IFITM3-FF (F75A, F78A) with 3xFLAG or myc tag (UniProt Q01628); experiment: co-IP; 293T cells cotransfected with 2 µg each of plasmids for myc- and 3xFLAG-tagged IFITM3 proteins; lysis in 50 mM Tris pH 7.4, 150 mM NaCl, 0.5% CHAPSO; precipitation with anti-FLAG (M2), blot with anti-myc (9E10)
[9] = molecular target: IFITM1 fused to SCFP or SYFP (interferon-induced transmembrane protein 1) (UniProt P13164); experiment: FRET or BRET; flow cytometry-based FRET (FACS-FRET) in transiently transfected HEK 293T cells, usually 1 µg of each plasmid encoding the FRET partners; read-out percent of FRET-positive cells; where the paper tells the orientation the binder is the SCFP fusion (donor) and the target the SYFP fusion (acceptor)

In the case of “IFITM2 fused to SCFP or SYFP (interferon-induced transmembrane protein 2) (from UniProt Q01629 1-132)”, the binding [1] is reported as “binds”, the binding [2] is reported as “binds” and the binding [3] is reported as “binds”.

In the case of “IFITM3-43AS (amino acids 43–48 changed to alanines) fused to SCFP or SYFP (from UniProt Q01628 1-133)”, the binding [4] is reported as “binds” and the binding [1] is reported as “binds”.

With “IFITM3-43AS (amino acids 43–48 changed to alanines) with 3xFLAG or myc tag (from UniProt Q01628 1-133)” the binding [5] was “binds”.

“IFITM3-FF (F75A, F78A) fused to SCFP or SYFP (from UniProt Q01628 1-133)” was tested, and the binding [6] was “binds”, the binding [1] was “binds” and the binding [7] was “binds”.

In the case of “IFITM3-FF (F75A, F78A) with 3xFLAG or myc tag (from UniProt Q01628 1-133)”, the binding [5] is reported as “binds” and the binding [8] is reported as “binds”.

With “IFITM3-wt fused to SCFP or SYFP (interferon-induced transmembrane protein 3) (from UniProt Q01628 1-133)” the binding [6] was “binds”, the binding [1] was “binds” and the binding [3] was “binds”.

With “IFITM3-wt with 3xFLAG or myc tag (from UniProt Q01628 1-133)” the binding [5] was “binds”.

B1: IFITM1 fused to SCFP or SYFP (interferon-induced transmembrane protein 1) (natural protein, UniProt P13164 1-125, looked up)
chain: MHKEEHEVAVLGPPPSTILPRSTVINIHSETSVPDHVVWSLFNTLFLNWCCLGFIAFAYSVKSRDRKMVGDVTGAQAYASTAKCLNIWALILGILMTIGFILLLVFGSVTVYHIMLQIIQEKRGY
notes: interferon-induced transmembrane protein 1 (IFITM1); One molecule stands for both FRET copies: one carries SCFP3A (donor), the other SYFP2 (acceptor); also called SCFP3A-IFITM1; SYFP2-IFITM1; source: 293T, transiently transfected, in cells; not shown: SCFP3A or SYFP2, N-terminal, kept
For B1, the binding [1] was “binds”, the binding [2] was “binds” and the binding [9] was “binds”. The binding [3] was “binds”.

B2: IFITM5 fused to SCFP or SYFP (interferon-induced transmembrane protein 5) (protein, UniProt A6NNB3 1-132)
chain: MDTAYPREDTRAPTPSKAGAHTALTLGAPHPPPRDHLIWSVFSTLYLNLCCLGFLALAYSIKARDQKVVGDLEAARRFGSKAKCYNILAAMWTLVPPLLLLGLVVTGALHLARLAKDSAAFFSTKFDDADYD
In the case of B2, the binding [3] is reported as “binds”.
